# Measurements reported in PubChem BioAssay AID188 (DTP/NCI, 2004).
# Shown are survivors of the treated group in tumour-free mice. Counts of survivors are from the toxicity check (mostly the fifth day) where no day follows; animals may have died later. Schedule codes are those of the source, read here as Q, the interval in days (D) or hours (H), X, the number of doses.
# Tested on: CD2F1 mice, nontumored, toxicity/survival
# Assay: NCI In Vivo Anticancer Drug Screen. Data for tumor model Nontumored Animals (Toxicity Test) in CD2F1 (CDF1) mice
# Details: vehicle: saline
smiles,measurement,setting,value
O=c1[nH]c(=O)n(C2CC(O)C(CO)O2)cc1F (stereo not given),survivor count,"dose: 15.6 mg/kg/injection, schedule: Q01DX005 (ip)",8 of 8
same,survivor count,"dose: 15.6 mg/kg/injection, schedule: Q01DX009 (ip)",8 of 8
same,survivor count,"dose: 15.6 mg/kg/injection, schedule: Q03HX008 (ip)",10 of 10
same,survivor count,"dose: 25.0 mg/kg/injection, schedule: Q03HX008 (ip)",10 of 10
same,survivor count,"dose: 31.3 mg/kg/injection, schedule: Q01DX005 (ip)",8 of 8
same,survivor count,"dose: 31.3 mg/kg/injection, schedule: Q01DX009 (ip)",8 of 8
same,survivor count,"dose: 31.3 mg/kg/injection, schedule: Q02DX005 (ip)",8 of 8
same,survivor count,"dose: 31.3 mg/kg/injection, schedule: Q03HX008 (ip)",10 of 10
same,survivor count,"dose: 31.3 mg/kg/injection, schedule: Q04DX003 (ip)",8 of 8
same,survivor count,"dose: 50.0 mg/kg/injection, schedule: Q03HX008 (ip)",10 of 10
same,survivor count,"dose: 62.5 mg/kg/injection, schedule: Q01DX001 (ip)",8 of 8
same,survivor count,"dose: 62.5 mg/kg/injection, schedule: Q01DX005 (ip)",8 of 8
same,survivor count,"dose: 62.5 mg/kg/injection, schedule: Q01DX009 (ip)",8 of 8
same,survivor count,"dose: 62.5 mg/kg/injection, schedule: Q02DX005 (ip)",8 of 8
same,survivor count,"dose: 62.5 mg/kg/injection, schedule: Q03HX008 (ip)",10 of 10
same,survivor count,"dose: 62.5 mg/kg/injection, schedule: Q04DX003 (ip)",8 of 8
same,survivor count,"dose: 100.0 mg/kg/injection, schedule: Q03HX008 (ip)",10 of 10
same,survivor count,"dose: 125.0 mg/kg/injection, schedule: Q01DX001 (ip)",8 of 8
same,survivor count,"dose: 125.0 mg/kg/injection, schedule: Q01DX005 (ip)",8 of 8
same,survivor count,"dose: 125.0 mg/kg/injection, schedule: Q01DX009 (ip)",8 of 8
same,survivor count,"dose: 125.0 mg/kg/injection, schedule: Q02DX005 (ip)",8 of 8
same,survivor count,"dose: 125.0 mg/kg/injection, schedule: Q03HX008 (ip)",9 of 10
same,survivor count,"dose: 125.0 mg/kg/injection, schedule: Q04DX003 (ip)",8 of 8
same,survivor count,"dose: 200.0 mg/kg/injection, schedule: Q03HX008 (ip)",10 of 10
same,survivor count,"dose: 250.0 mg/kg/injection, schedule: Q01DX001 (ip)",8 of 8
same,survivor count,"dose: 250.0 mg/kg/injection, schedule: Q01DX005 (ip)",8 of 8
same,survivor count,"dose: 250.0 mg/kg/injection, schedule: Q01DX009 (ip)",8 of 8
same,survivor count,"dose: 250.0 mg/kg/injection, schedule: Q02DX005 (ip)",8 of 8
same,survivor count,"dose: 250.0 mg/kg/injection, schedule: Q03HX008 (ip)",10 of 10
same,survivor count,"dose: 250.0 mg/kg/injection, schedule: Q04DX003 (ip)",8 of 8
same,survivor count,"dose: 400.0 mg/kg/injection, schedule: Q03HX008 (ip)",10 of 10
same,survivor count,"dose: 500.0 mg/kg/injection, schedule: Q01DX001 (ip)",8 of 8
same,survivor count,"dose: 500.0 mg/kg/injection, schedule: Q02DX005 (ip)",8 of 8
same,survivor count,"dose: 500.0 mg/kg/injection, schedule: Q04DX003 (ip)",8 of 8
same,survivor count,"dose: 1000.0 mg/kg/injection, schedule: Q01DX001 (ip)",8 of 8
